For four substances, binding results are on record in PMC9279413.

By UniProt entry, the sequences of proteins in these tests, tags left out.
UniProt Q13546: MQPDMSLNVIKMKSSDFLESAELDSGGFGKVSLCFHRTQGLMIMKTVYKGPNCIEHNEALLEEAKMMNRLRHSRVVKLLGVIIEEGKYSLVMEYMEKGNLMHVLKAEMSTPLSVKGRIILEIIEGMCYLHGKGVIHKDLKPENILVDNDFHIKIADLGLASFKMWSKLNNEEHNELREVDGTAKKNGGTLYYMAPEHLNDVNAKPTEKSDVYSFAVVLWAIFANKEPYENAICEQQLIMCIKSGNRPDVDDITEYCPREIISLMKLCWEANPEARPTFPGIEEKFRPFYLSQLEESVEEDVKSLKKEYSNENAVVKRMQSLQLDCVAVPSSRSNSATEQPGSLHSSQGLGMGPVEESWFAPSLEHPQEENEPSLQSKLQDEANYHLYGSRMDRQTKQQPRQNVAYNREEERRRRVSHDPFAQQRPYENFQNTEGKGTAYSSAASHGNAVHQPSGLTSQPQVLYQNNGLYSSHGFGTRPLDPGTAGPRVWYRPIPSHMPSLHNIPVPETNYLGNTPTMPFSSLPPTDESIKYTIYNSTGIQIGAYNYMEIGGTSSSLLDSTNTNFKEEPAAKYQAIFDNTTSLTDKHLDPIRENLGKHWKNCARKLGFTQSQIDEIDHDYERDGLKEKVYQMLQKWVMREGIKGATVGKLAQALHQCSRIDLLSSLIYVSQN

Results are given in words; binding and its absence hold for the method and conditions named. Binding seen in cells or lysates may run through a third protein. Some entries that bind do so weakly or less than the wild type.

For experiment [1], the target named is receptor-interacting serine/threonine kinase 1 (RIP1) (human (endogenous in ACHN)) (UniProt Q13546). In words: co-IP; endogenous proteins; ACHN cells exposed to DMSO or rasfonin (6 or 12 μM) for 6 h; lysed in Triton X-100/glycerol buffer; immunoprecipitated with mouse monoclonal antibodies of Grb2, p62, EGFR or RIP1 over 3 h at 4 °C, Protein A- or Protein G-Sepharose 1 h; immunoblot.

For experiment [2], the target named is SQSTM/p62 (p62) (human (endogenous in ACHN)) (UniProt Q13501). Described as above.
Experiment [3] addresses Growth factor receptor bound protein 2 (Grb2) (human (endogenous in ACHN)) (UniProt P62993). Described as above.
Experiment [4] concerns the target epidermal growth factor receptor (EGFR) (human (endogenous in ACHN)) (UniProt P00533). Described as above.
The target of experiment [5] is SQSTM/p62 (p62) (human (endogenous in ACHN)) (UniProt Q13501). In words: condition: only cells not treated with 12 μM rasfonin; co-IP; as a1, immunoprecipitation with the p62 antibody, from ACHN cells not treated with 12 μM rasfonin (DMSO control or 6 μM rasfonin).

With “Growth factor receptor bound protein 2 (Grb2) (from UniProt P62993 1-217)”, the binding entry in experiment [1] and in experiment [2] was “binds” throughout.
As to “SQSTM/p62 (p62) (from UniProt Q13501 1-440)”, the binding result in experiment [3], in experiment [1] and in experiment [4] was “binds” in each case.
Regarding “epidermal growth factor receptor (EGFR) (from UniProt P00533 25-1210)”, the results for the binding entry in experiment [5], in experiment [1] and in experiment [2] were “no binding”, “binds” and “binds”, respectively.
Take “receptor-interacting serine/threonine kinase 1 (RIP1) (from UniProt Q13546 1-671)”: the values for the binding entry in experiment [5], in experiment [3] and in experiment [2] were “no binding”, “binds” and “binds”, respectively.
